Binding data for two molecules are collected here from article doi:10.1101/2025.07.02.662776.

Amino acid sequences for entries named in this document (tags omitted).
UniProt P23198, whole entry: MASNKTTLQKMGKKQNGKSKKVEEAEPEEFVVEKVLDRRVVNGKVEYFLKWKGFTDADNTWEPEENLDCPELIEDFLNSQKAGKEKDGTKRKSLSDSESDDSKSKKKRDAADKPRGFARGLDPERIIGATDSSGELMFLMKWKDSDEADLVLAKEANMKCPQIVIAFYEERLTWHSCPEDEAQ
UniProt Q6PDQ2, whole entry: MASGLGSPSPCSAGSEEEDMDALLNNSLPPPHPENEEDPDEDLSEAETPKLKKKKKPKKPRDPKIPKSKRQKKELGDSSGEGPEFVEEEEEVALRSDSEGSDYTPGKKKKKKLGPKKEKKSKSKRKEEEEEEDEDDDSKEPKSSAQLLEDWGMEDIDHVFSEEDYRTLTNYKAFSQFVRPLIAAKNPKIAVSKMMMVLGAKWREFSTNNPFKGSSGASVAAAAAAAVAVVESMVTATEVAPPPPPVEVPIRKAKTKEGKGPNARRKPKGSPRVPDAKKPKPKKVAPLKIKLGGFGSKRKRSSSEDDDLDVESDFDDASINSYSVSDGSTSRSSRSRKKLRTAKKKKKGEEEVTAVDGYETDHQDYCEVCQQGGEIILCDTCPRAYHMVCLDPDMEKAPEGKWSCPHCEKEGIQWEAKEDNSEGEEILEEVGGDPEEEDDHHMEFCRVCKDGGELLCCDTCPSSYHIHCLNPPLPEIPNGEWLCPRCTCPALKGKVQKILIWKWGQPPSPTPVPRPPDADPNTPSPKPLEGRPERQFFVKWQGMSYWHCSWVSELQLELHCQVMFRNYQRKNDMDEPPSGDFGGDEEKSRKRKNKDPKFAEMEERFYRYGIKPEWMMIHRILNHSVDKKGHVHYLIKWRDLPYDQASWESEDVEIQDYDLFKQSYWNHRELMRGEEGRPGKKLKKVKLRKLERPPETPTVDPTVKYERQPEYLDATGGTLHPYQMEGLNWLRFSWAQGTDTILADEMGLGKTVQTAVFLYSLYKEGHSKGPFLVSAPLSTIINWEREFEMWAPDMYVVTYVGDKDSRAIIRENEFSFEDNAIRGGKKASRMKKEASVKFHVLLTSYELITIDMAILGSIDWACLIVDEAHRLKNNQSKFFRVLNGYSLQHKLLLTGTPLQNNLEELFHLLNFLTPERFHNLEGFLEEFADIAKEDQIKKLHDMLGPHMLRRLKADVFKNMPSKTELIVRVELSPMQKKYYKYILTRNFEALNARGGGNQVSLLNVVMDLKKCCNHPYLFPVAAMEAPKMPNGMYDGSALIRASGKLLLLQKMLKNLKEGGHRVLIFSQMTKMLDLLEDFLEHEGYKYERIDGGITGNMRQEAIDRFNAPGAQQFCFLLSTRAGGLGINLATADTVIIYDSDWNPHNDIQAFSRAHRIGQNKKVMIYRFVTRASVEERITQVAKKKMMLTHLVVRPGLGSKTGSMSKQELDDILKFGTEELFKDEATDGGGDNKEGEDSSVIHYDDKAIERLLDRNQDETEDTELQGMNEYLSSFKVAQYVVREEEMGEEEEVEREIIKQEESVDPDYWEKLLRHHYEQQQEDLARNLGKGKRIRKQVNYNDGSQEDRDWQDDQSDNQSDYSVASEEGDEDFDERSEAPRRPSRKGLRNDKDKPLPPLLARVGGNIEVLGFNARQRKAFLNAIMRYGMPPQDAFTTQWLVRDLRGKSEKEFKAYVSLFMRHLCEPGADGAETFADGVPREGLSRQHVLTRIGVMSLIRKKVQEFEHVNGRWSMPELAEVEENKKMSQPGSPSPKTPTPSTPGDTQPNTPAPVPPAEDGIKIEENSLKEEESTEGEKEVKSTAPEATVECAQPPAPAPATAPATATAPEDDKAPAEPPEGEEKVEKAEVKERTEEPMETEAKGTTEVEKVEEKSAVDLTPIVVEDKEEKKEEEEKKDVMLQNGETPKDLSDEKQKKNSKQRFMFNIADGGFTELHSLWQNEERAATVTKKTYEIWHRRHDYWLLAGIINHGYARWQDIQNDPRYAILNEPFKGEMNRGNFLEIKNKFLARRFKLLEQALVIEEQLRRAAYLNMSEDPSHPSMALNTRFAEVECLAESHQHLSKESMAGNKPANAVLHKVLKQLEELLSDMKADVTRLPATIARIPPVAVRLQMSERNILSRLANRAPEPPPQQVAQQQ

The target in this test is Strep-tagged HP1γ (recombinant, full length) (UniProt P23198). The test is described as follows: co-purification.

These are yes or no findings as the source states them, for the method shown. Some entries that bind do so weakly or less than the wild type. Tags and fused reporters may be left off the sequences shown.

For the molecule “His6-tagged CHD4 (recombinant, full length) (from UniProt Q6PDQ2 1-1915)”, the binding entry is given as “binds”.

B1: His6-tagged ADNP (recombinant, full length) (protein, UniProt Q9Z103 1-1108)
chain: MFQLPVNNLGSLRKARKTVKKILSDIGLEYCKEHIEDFKQFEPNDFYLKNTTWEDVGLWDPSLTKNQDYRTKPFCCSACPFSSKFFSAYKSHFRNVHSEDFENRILLNCPYCTFNADKKTLETHIKIFHAPNSSAPSSSLSTFKDKNKNDGLKPKQADNVEQAVYYCKKCTYRDPLYEIVRKHIYREHFQHVAAPYIAKAGEKSLNGAVSLGTNAREECNIHCKRCLFMPKSYEALVQHVIEDHERIGYQVTAMIGHTNVVVPRAKPLMLIAPKPQDKKGMGLPPRISSLASGNVRSLPSQQMVNRLSIPKPNLNSTGVNMMSNVHLQQNNYGVKSVGQSYGVGQSVRLGLGGNAPVSIPQQSQSVKQLLPSGNGRSFGLGAEQRPPAAARYSLQTANTSLPPGQVKSPSVSQSQASRVLGQSSSKPPPAATGPPPSNHCATQKWKICTICNELFPENVYSVHFEKEHKAEKVPAVANYIMKIHNFTSKCLYCNRYLPTDTLLNHMLIHGLSCPYCRSTFNDVEKMAAHMRMVHIDEEMGPKTDSTLSFDLTLQQGSHTNIHLLVTTYNLRDAPAESVAYHAQNNAPVPPKPQPKVQEKADVPVKSSPQAAVPYKKDVGKTLCPLCFSILKGPISDALAHHLRERHQVIQTVHPVEKKLTYKCIHCLGVYTSNMTASTITLHLVHCRGVGKTQNGQDKTNAPSRLNQSPGLAPVKRTYEQMEFPLLKKRKLEEDADSPSCFEEKPEEPVVLALDPKGHEDDSYEARKSFLTKYFNKQPYPTRREIEKLAASLWLWKSDIASHFSNKRKKCVRDCEKYKPGVLLGFNMKELNKVKHEMDFDAEWLFENHDEKDSRVNASKTVDKKHNLGKEDDSFSDSFEHLEEESNGSGSPFDPVFEVEPKIPSDNLEEPVPKVIPEGALESEKLDQKEEEEEEEEEDGSKYETIHLTEEPAKLMHDASDSEVDQDDVVEWKDGASPSESGPGSQQISDFEDNTCEMKPGTWSDESSQSEDARSSKPAAKKKATVQDDTEQLKWKNSSYGKVEGFWSKDQSQWENASENAERLPNPQIEWQNSTIDSEDGEQFDSMTDGVADPMHGSLTGVKLSSQQA
Consider B1, for which the binding result was “binds”.
